Source: PubChem BioAssay AID1259293 (Sanger Institute, 2017)
Purpose: 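Follow-up of kinase siRNAs for synthetic lethality with three anchor drugs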 (follow-up of hits). Cells: human NCI-H716 colorectal cancer cells. Reagents: single siRNA against human genes. Conditions: anchor drugs BYL719 at 1 µM, cetuximab at 5 µg/ml or trametinib at 10 nM, or DMSO vehicle alone. Measurement: 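Replicate-averaged cell survival relative to non-targeting pool 2 control, plus a synergy score calculated separately for each of the three anchor drugs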. Reading the numbers: synergy score with BYL719 and synergy score with cetuximab and synergy score with trametinib: higher = stronger synthetic lethal effect with drug. Rule for the call: 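Hit when any single drug gives a synergy score greater than 0.10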. Calls: active = synergy with at least one drug; inactive = no synergy with any drug.
The whole screen tested 160 reagents; shown is a random part of them. Over the whole deposit, 46 (29%) were called active. 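The method behind the synergy score is not described; each call refers to one siRNA in a single cell line.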 The numbers tell different reagents against one gene apart. Further read-outs or replicates are left out here. Not given: the amount of reagent, the time to read-out.

| gene symbol | reagent no. | synergy score with BYL719 | synergy score with cetuximab | synergy score with trametinib | Outcome |
| --- | --- | --- | --- | --- | --- |
| PAK1 | 1 | -0.266 | -0.0303 | 0.0126 | inactive |
| PAK1 | 2 | -0.179 | -0.109 | -0.14 | inactive |
| PAK1 | 3 | -0.179 | 0.0571 | 0.0995 | inactive |
| PAK1 | 4 | -0.0394 | 0.141 | 0.0616 | active |
| MAP3K8 | 1 | -0.179 | -0.109 | -0.469 | inactive |
| MAP3K8 | 2 | 0.199 | 0.23 | 0.127 | active |
| MAP3K8 | 3 | -0.258 | 0.257 | 0.0874 | active |
| MAP3K8 | 4 | -0.101 | -0.109 | -0.118 | inactive |
| CSNK2A2 | 1 | -0.179 | -0.109 | 0.0668 | inactive |
| CSNK2A2 | 2 | -0.244 | -0.122 | 0.014 | inactive |
| CSNK2A2 | 3 | -0.174 | -0.337 | -0.109 | inactive |
| CSNK2A2 | 4 | -0.195 | -0.0566 | 0.102 | active |
| PINK1 | 1 | -0.179 | -0.109 | -0.412 | inactive |
| PINK1 | 2 | -0.23 | -0.328 | 0.0244 | inactive |
| PINK1 | 3 | -0.316 | -0.257 | 0.106 | active |
| PINK1 | 4 | 0.00814 | 0.00266 | 0.217 | active |
| CRIM1 | 1 | -0.262 | -0.199 | 0.00242 | inactive |
| CRIM1 | 2 | -0.0544 | -0.273 | -0.00401 | inactive |
| CRIM1 | 3 | -0.261 | -0.391 | -0.0391 | inactive |
| CRIM1 | 4 | 0.0809 | -0.0238 | -0.178 | inactive |
| PLK1 | 1 | -0.0717 | -0.315 | -0.0566 | inactive |
| PLK1 | 2 | -0.108 | -0.145 | -0.165 | inactive |
| PLK1 | 3 | 0.0227 | 0.0809 | -0.101 | inactive |
| PLK1 | 4 | 0.00305 | 0.00815 | -0.0136 | inactive |
| IRAK1 | 1 | -0.111 | -0.109 | -0.469 | inactive |
| IRAK1 | 2 | 0.0728 | -0.0725 | -0.0801 | inactive |
| IRAK1 | 3 | 0.118 | -0.107 | -0.0424 | active |
| IRAK1 | 4 | 0.323 | -0.0118 | 0.0272 | active |
| NLK | 1 | -0.0331 | 0.164 | -0.0226 | active |
| NLK | 2 | -0.226 | 0.387 | -0.0614 | active |
| NLK | 3 | -0.179 | -0.109 | -0.469 | inactive |
| NLK | 4 | 0.106 | -0.0408 | 0.121 | active |
| MPP3 | 1 | -0.157 | -0.236 | -0.0512 | inactive |
| MPP3 | 2 | 0.00814 | -0.109 | 0.252 | active |
| MPP3 | 3 | -0.179 | -0.109 | -0.248 | inactive |
| MPP3 | 4 | 0.024 | -0.339 | 0.0782 | inactive |
| CAMK2N1 | 1 | 0.204 | -0.0625 | 0.165 | active |
| CAMK2N1 | 2 | 0.142 | -0.374 | -0.187 | active |
| CAMK2N1 | 3 | -0.0694 | -0.121 | -0.0098 | inactive |
| CAMK2N1 | 4 | -0.375 | -0.219 | -0.0428 | inactive |

3 of these entries, set out differently.
gene symbol | reagent no. | synergy score with BYL719 | synergy score with cetuximab | synergy score with trametinib | Outcome
NLK | 3 | -0.179 | -0.109 | -0.469 | inactive
NLK | 4 | 0.106 | -0.0408 | 0.121 | active
MPP3 | 1 | -0.157 | -0.236 | -0.0512 | inactive
